Measured values as given in PMC10791687, “The Piezo channel is a mechano-sensitive complex component in the mammalian inner ear hair cell” (Nature Communications, 2024).
These are yes or no findings as the source states them, for the method shown. Binding seen in cells or lysates may run through a third protein. Some binding calls cover weakened binding; strength is not graded here. Sequences can lack the tags named with a protein.

Sequences of proteins named here, by UniProt entry; tags and fusion partners are left off.
UniProt Q8CD54: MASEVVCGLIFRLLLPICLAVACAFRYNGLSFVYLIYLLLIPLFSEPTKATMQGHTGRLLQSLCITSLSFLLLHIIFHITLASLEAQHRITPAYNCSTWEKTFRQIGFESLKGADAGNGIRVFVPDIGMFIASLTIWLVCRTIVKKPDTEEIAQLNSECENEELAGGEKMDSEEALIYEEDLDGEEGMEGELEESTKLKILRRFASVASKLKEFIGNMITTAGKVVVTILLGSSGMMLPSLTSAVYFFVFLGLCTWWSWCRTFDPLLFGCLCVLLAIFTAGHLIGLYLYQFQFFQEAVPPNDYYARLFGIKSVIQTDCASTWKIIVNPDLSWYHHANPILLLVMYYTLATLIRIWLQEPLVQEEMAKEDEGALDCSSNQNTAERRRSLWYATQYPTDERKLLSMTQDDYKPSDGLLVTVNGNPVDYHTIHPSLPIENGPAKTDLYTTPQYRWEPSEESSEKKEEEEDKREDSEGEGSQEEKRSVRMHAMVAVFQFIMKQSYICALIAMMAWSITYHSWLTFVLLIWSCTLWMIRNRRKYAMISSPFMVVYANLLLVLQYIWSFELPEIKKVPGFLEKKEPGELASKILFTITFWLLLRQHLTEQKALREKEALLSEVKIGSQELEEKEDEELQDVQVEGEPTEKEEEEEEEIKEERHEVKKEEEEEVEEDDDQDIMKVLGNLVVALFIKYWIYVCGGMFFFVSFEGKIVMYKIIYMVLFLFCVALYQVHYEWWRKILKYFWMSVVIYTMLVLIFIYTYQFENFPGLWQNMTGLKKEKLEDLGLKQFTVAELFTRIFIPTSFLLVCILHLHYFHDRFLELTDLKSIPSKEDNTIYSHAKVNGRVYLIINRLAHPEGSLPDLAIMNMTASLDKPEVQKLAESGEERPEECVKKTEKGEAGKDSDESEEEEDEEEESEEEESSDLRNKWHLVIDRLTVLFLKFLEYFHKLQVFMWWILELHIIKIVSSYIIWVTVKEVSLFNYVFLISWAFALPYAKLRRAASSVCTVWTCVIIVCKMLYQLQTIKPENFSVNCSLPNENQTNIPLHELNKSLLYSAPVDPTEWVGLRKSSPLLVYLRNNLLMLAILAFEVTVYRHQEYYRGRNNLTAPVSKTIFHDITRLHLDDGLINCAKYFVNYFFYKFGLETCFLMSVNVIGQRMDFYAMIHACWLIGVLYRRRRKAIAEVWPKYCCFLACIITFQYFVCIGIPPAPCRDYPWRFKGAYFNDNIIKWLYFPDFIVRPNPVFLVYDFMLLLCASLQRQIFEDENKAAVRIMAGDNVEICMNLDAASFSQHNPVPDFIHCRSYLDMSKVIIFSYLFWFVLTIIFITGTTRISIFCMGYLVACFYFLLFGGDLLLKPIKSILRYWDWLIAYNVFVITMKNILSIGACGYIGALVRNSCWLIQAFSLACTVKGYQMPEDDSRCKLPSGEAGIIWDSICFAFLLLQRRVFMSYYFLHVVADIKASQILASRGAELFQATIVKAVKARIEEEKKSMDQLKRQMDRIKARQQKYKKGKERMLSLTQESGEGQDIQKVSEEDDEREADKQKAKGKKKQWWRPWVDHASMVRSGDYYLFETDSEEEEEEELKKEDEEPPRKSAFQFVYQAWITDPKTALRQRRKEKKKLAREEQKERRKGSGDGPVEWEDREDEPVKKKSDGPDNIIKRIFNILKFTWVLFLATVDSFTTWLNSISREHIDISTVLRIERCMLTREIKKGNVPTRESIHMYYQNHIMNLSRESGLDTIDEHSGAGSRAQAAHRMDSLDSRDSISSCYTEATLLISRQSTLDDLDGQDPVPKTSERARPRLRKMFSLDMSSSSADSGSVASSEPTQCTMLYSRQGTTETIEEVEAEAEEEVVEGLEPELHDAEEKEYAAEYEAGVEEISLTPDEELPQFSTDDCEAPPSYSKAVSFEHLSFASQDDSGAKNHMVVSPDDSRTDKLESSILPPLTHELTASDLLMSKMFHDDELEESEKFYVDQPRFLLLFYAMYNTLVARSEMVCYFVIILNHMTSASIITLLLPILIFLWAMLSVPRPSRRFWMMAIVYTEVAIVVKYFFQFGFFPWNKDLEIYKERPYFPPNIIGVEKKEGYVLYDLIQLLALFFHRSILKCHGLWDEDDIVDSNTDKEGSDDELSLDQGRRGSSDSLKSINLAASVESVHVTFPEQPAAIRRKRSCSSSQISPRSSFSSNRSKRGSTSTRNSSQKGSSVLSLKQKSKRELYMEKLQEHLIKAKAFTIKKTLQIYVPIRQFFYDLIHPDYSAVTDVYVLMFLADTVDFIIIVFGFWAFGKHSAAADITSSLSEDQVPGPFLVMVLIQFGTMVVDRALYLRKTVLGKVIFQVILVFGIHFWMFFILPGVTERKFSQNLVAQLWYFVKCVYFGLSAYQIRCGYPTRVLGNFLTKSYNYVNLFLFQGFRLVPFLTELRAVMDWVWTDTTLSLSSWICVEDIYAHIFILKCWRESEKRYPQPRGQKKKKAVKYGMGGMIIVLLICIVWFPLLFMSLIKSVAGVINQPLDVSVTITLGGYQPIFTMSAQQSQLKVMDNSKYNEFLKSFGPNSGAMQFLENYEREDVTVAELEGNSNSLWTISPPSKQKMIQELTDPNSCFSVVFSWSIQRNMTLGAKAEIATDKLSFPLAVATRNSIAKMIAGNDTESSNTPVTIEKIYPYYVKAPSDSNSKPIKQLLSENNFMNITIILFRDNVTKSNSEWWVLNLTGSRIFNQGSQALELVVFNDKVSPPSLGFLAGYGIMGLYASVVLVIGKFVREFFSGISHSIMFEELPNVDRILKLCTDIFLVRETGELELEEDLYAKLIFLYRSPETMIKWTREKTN
UniProt E2JF22: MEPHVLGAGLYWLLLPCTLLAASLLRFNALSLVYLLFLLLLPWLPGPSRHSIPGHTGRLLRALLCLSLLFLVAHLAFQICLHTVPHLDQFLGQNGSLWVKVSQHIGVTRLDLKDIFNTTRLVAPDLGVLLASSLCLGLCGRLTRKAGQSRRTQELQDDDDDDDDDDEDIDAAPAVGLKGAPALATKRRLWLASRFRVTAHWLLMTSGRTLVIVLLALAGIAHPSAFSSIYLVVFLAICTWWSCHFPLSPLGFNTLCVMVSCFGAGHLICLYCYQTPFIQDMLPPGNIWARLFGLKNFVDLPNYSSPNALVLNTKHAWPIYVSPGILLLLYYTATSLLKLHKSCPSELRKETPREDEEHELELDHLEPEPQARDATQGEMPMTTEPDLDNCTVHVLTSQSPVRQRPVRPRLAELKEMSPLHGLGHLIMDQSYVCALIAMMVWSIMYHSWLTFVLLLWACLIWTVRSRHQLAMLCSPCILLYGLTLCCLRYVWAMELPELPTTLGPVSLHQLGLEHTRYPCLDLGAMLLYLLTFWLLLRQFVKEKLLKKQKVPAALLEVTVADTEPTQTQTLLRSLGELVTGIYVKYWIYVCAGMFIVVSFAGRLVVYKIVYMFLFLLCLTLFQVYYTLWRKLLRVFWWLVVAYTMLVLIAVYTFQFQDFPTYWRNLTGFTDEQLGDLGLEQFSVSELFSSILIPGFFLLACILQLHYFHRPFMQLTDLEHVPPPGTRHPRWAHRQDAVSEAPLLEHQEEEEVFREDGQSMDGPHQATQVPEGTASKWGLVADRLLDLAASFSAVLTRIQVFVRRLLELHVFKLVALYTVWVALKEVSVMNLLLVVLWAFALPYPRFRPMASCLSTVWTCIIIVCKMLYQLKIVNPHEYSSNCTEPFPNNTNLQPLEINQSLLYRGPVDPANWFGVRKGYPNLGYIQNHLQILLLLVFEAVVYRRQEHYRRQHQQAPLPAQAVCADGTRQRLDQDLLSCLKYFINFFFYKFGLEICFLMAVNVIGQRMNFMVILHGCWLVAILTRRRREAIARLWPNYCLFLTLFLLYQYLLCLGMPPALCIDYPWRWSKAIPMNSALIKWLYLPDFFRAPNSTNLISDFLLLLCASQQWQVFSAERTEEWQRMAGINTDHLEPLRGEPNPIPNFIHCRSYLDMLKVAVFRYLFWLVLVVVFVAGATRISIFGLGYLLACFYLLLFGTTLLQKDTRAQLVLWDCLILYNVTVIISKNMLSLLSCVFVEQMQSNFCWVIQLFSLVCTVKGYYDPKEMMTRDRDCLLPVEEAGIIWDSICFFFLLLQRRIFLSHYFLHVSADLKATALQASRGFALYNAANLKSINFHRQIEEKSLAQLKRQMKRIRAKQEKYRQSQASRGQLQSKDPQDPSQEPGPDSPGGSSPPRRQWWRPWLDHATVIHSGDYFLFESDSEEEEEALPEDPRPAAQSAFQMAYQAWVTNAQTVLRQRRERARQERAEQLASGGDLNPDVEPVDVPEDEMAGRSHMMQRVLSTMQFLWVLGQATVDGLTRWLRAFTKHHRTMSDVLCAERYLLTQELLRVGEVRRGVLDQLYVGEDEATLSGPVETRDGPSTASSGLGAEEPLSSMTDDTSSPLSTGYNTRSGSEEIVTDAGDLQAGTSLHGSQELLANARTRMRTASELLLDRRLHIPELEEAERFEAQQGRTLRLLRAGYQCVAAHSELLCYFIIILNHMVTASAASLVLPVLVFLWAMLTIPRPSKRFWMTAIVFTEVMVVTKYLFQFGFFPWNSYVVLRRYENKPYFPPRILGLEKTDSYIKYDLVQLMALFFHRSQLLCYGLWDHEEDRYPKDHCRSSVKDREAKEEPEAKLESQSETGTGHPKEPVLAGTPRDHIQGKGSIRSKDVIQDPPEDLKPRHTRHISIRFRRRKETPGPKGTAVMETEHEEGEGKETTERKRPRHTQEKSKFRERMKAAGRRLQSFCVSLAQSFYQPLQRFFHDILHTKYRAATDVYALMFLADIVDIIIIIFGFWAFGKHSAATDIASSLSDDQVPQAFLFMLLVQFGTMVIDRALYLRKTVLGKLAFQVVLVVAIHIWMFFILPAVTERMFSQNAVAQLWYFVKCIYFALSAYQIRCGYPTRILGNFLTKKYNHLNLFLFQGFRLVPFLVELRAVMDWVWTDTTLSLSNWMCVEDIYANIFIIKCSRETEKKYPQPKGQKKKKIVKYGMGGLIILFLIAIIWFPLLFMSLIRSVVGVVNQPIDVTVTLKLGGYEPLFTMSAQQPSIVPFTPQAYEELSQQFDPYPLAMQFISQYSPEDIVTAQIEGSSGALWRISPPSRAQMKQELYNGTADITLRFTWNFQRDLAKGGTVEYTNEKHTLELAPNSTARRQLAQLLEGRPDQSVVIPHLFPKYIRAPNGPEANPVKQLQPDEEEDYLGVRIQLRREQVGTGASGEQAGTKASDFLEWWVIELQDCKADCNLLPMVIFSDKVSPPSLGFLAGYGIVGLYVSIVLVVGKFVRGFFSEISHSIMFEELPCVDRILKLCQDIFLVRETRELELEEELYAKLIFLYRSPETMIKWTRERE

B1: Tmc1-mCherry fusion protein, transgenic mouse (protein, UniProt Q8R4P5 1-757)
chain: MLQIQVEEKEEDTEESSSEEEEDKLPRRESLRPKRKRTRDVINEDDPEPEPEDEETRKAREKERRRRLRRGAEEEEEIDEEELERLKALLDENRQMIATVKCKPWKMEKKIEVLKEAKKFVSENEGALGKGKGKKWFAFKMMMAKKWAKFLRDFENFKAACVPWENKIKAIESQFGSSVASYFLFLRWMYGVNMVLFVLTFSLIMLPEYLWGLPYGSLPRKTVPRAEEASAANFGVLYDFNGLAQYSVLFYGYYDNKRTIGWLNFRLPLSYFLVGIMCIGYSFLVVLKAMTKNIGDDGGGDDNTFNFSWKVFCSWDYLIGNPETADNKFNSITMNFKEAIIEERAAQVEENIHLIRFLRFLANFFVFLTLGASGYLIFWAVKRSQEFAQQDPDTLGWWEKNEMNMVMSLLGMFCPTLFDLFAELEDYHPLIALKWLLGRIFALLLGNLYVFILALMDEINNKIEEEKLVKANITLWEANMIKAYNESLSGLSGNTTGAPFFVHPADVPRGPCWETMVGQEFVRLTVSDVLTTYVTILIGDFLRACFVRFCNYCWCWDLEYGYPSYTEFDISGNVLALIFNQGMIWMGSFFAPSLPGINILRLHTSMYFQCWAVMCCNVPEARVFKASRSNNFYLGMLLLILFLSTMPVLYMIVSLPPSFDCGPFSGKNRMFEVIGETLEHDFPSWMAKILRQLSNPGLVIAVILVMVLTIYYLNATAKGQKAANLDLKKKMKQQALENKMRNKKMAAARAAAAAGGQ
B2: mCherry-tagged mouse Tmc1 expressed in HEK 293 cells (protein, UniProt Q8R4P5 1-757)
chain: B1 chain
B3: mCherry-tagged mouse Tmc2 expressed in HEK 293 cells (protein, UniProt Q8R4P4 1-888)
chain: MSPQLKSLDEEGDKSARRPTRKQTSRAACPQDGHRAQSSRKDPAKGSPRPGSSRKKQMEHGSYHKGLQGQKPRKVERSLQGRKKDRRTSLKEQRASPKKEREALRKEAGKQLRKPRSTSLGSSVSTGDSLSEEELAQILEQVEEKKKLITTVRNKPWPMAKKLRELREAQAFVEKYEGALGKGKGKHLYAYRMMMAKKWVKFKRDFDNFKTQCIPWEMKIKDIESHFGSSVASYFIFLRWMYGVNLVLFGLIFGLVIIPEVLMGMPYGSIPRKTVPRAEEERAMDFSVLWDFEGYIKYSALFYGYYNNQRTIGWLRYRLPMAYFMVGVSVFGYSLMIVIRSMASNTQGSTSEGDSDSFTFSFKMFTSWDYLIGNSETADNKYVSITTSFKESIVDEQESNKEGNIHLTRFLRVLANFLILCCLCGSGYLIYFVVKRSQEFSKMQNVSWYERNEVEIVMSLLGMFCPPLFETIAALENYHPRTGLKWQLGRIFALFLGNLYTFLLALMDDVHLKLSNEEKIKNITHWTLFNYYNSSGGNESVPRPPPHPADVPRGSCWETAVGIEFMRLTVSDMLVTYLTILVGDFLRACFVRFMNHCWCWDLEAGFPSYAEFDISGNVLGLIFNQGMIWMGSFYAPGLVGINVLRLLTSMYFQCWAVMSSNVPHERVFKASRSNNFYMGLLLLVLFLSLLPVAYTVMSLPPSFDCGPFSGKNRMYDVLHETIENDFPKFLGKIFAFLANPGLIIPAILLMFLAIYYLNSVSKSLSRANAQLRKKIQALREVEKNHKSIKGKAIVTYSEDTIKNSSKNATQIHLTKEEPTSHSSSQIQTLDKKAQGPHTSSTEGGASPSTSWHHVGSQPPRGRRDSGQPQSQTYTGRSPSGKRTQRPHN

How the values were obtained:
[1] = target: Piezo2-GFP fusion protein (Pz2-GFP), knock-in mouse (mouse) (UniProt Q8CD54); assay: FRET or BRET; acceptor photobleaching FRET in OHC stereocilia isolated from mice expressing Pz2-GFP and Tmc1-mCherry
[2] = target: Piezo2-GFP fusion protein (Pz2-GFP), knock-in mouse (mouse) (UniProt Q8CD54); assay: co-IP; cochlear tissue of Tmc2-AcGFP: Pz1-tdT and Tmc1-mCherry: Pz2-GFP mice homogenized in Pierce IP lysis buffer; lysate with GFP-antibody at 4 °C overnight, Dynabeads Protein G; immunoblot with anti-tdTomato or anti-mCherry; negative controls from non-transgenic cochlear tissue
[3] = target: FLAG-tagged mouse Piezo1 expressed in HEK 293 cells (mouse) (UniProt E2JF22); assay: co-IP; HEK 293 cells transiently co-transfected with Flag-mPz1 and one tagged partner; IP lysis buffer, antibody on Dynabeads Protein G, 20 min at RT; IP with anti-FLAG, anti-mCherry, anti-His, anti-Myc, anti-HA or anti-V5, Western blot with the tag antibodies

| Binder | binding [1] | binding [2] | binding [3] |
| --- | --- | --- | --- |
| B1 | binds | binds |  |
| B2 |  |  | binds |
| B3 |  |  | binds |
